# Measurements from patent US5380727A, “Synergistic combination for treating herpes infections” (Bio-Mega, Inc., priority 1990, dated 1995).
# At least one peptide structure holds a part that was inferred or is arguable (an end, a ring closure or a residue).
# Test system: HSV-2 (strain HG-52)
# Test: Inhibition of HSV-2 replication in BHK-21/C13 cell culture (viral titer by neutral red colorimetric assay)
# Format: cell-based
# Conditions: agent alone; HSV-2 strain HG-52 in BHK-21/C13 cells, 29 h incubation; read-out: IC50 (concentration causing 50% inhibition of virus replication)
# Protocol: BHK-21/C13 cells (ATCC CCL 10) are incubated for two days in 150 cm^2 T-flasks (1.5×10^6 cells/flask) with alpha-MEM medium (Gibco Canada Inc., Burlington, Ontario, Canada) supplemented with 8% (v/v) fetal bovine serum (FBS, Gibco Canada Inc.). The cells are trypsinized and then transferred to fresh media in a 24 well plate to give 2.5×10^5 cells in 750 μL of media per well. The cells are incubated at 37° C. for a period of 6 hours to allow them to adhere to the plate. Thereafter, the cells are washed once with 500 μL of alpha-MEM supplemented with 0.5% (v/v) FBS and then incubated with 750 μL of the same media (low serum) for 3 days. After this period of serum starvation, the low serum medium is removed and the cells are incubated in 500 μL of BBMT for 2 to 3 hours. [BBMT medium is described by P. Brazeau et al., Proc. Natl. Acad. Sci. USA, 79, 7909 (1982).] Thereafter, the cells are infected with HSV-2 (multiplicity of infection=0.02 PFU/cell) in 100 μL of BBMT medium. […]
# On completion of the above 2 hour incubation of the BHK-21/C13 cells, the media is replaced with alpha-MEM medium supplemented with 3% (v/v) FBS. The cells are now ready to be infected with the various sample dilutions of virus. […]
compound,measurement,value
"CCC(CC)NC(=O)C[C@H](C(=O)N[C@@H](CC(=O)N1CCCC1)C(=O)N[C@H](C(=O)N[C@@H](CC(C)(C)C)C(=O)O)C1(C(=O)O)CCCC1)C(C)(C)C [peptide, Et2 CHNH-COCH2 CH[(S)-C(CH3)3 ]CO-Asp(pyrrolidino)-Asp(cyPn)-.UPSILON.MeLeu-OH]",IC50,~1 mM
